{"source": "paper PMC10787067", "about": "“EBF2 Links KMT2D‐Mediated H3K4me1 to Suppress Pancreatic Cancer Progression via Upregulating KLLN” (Advanced Science, 2023)", "binders": {"B1": {"name": "TSPYL2 (protein, UniProt Q9H2G4 1-693)", "chain": "MDRPDEGPPAKTRRLSSSESPQRDPPPPPPPPPLLRLPLPPPQQRPRLQEETEAAQVLADMRGVGLGPALPPPPPYVILEEGGIRAYFTLGAECPGWDSTIESGYGEAPPPTESLEALPTPEASGGSLEIDFQVVQSSSFGGEGALETCSAVGWAPQRLVDPKSKEEAIIIVEDEDEDERESMRSSRRRRRRRRRKQRKVKRESRERNAERMESILQALEDIQLDLEAVNIKAGKAFLRLKRKFIQMRRPFLERRDLIIQHIPGFWVKAFLNHPRISILINRRDEDIFRYLTNLQVQDLRHISMGYKMKLYFQTNPYFTNMVIVKEFQRNRSGRLVSHSTPIRWHRGQEPQARRHGNQDASHSFFSWFSNHSLPEADRIAEIIKNDLWVNPLRYYLRERGSRIKRKKQEMKKRKTRGRCEVVIMEDAPDYYAVEDIFSEISDIDETIHDIKISDFMETTDYFETTDNEITDINENICDSENPDHNEVPNNETTDNNESADDHETTDNNESADDNNENPEDNNKNTDDNEENPNNNENTYGNNFFKGGFWGSHGNNQDSSDSDNEADEASDDEDNDGNEGDNEGSDDDGNEGDNEGSDDDDRDIEYYEKVIEDFDKDQADYEDVIEIISDESVEEEGIEEGIQQDEDIYEEGNYEEEGSEDVWEEGEDSDDSDLEDVLQVPNGWANPGKRGKTG"}, "B2": {"name": "CYR61 (protein, UniProt O00622 25-381)", "chain": "TCPAACHCPLEAPKCAPGVGLVRDGCGCCKVCAKQLNEDCSKTQPCDHTKGLECNFGASSTALKGICRAQSEGRPCEYNSRIYQNGESFQPNCKHQCTCIDGAVGCIPLCPQELSLPNLGCPNPRLVKVTGQCCEEWVCDEDSIKDPMEDQDGLLGKELGFDASEVELTRNNELIAVGKGSSLKRLPVFGMEPRILYNPLQGQKCIVQTTSWSQCSKTCGTGISTRVTNDNPECRLVKETRICEVRPCGQPVYSSLKKGKKCSKTKKSPEPVRFTYAGCLSVKKYRPKYCGSCVDGRCCTPQLTRTVKMRFRCEDGETFSKNVMMIQSCKCNYNCPHANEAAFPFYRLFNDIHKFRD"}, "B3": {"name": "CIRBP (protein, UniProt Q14011 1-172)", "chain": "MASDEGKLFVGGLSFDTNEQSLEQVFSKYGQISEVVVVKDRETQRSRGFGFVTFENIDDAKDAMMAMNGKSVDGRQIRVDQAGKSSDNRSRGYRGGSAGGRGFFRGGRGRGRGFSRGGGDRGYGGNRFESRSGGYGGSRDYYSSRSQSGGYSDRSSGGSYRDSYDSYATHNE"}, "B4": {"name": "TGFBR3 (protein, UniProt Q03167 21-851)", "chain": "GPEPGALCELSPVSASHPVQALMESFTVLSGCASRGTTGLPQEVHVLNLRTAGQGPGQLQREVTLHLNPISSVHIHHKSVVFLLNSPHPLVWHLKTERLATGVSRLFLVSEGSVVQFSSANFSLTAETEERNFPHGNEHLLNWARKEYGAVTSFTELKIARNIYIKVGEDQVFPPKCNIGKNFLSLNYLAEYLQPKAAEGCVMSSQPQNEEVHIIELITPNSNPYSAFQVDITIDIRPSQEDLEVVKNLILILKCKKSVNWVIKSFDVKGSLKIIAPNSIGFGKESERSMTMTKSIRDDIPSTQGNLVKWALDNGYSPITSYTMAPVANRFHLRLENNAEEMGDEEVHTIPPELRILLDPGALPALQNPPIRGGEGQNGGLPFPFPDISRRVWNEEGEDGLPRPKDPVIPSIQLFPGLREPEEVQGSVDIALSVKCDNEKMIVAVEKDSFQASGYSGMDVTLLDPTCKAKMNGTHFVLESPLNGCGTRPRWSALDGVVYYNSIVIQVPALGDSSGWPDGYEDLESGDNGFPGDMDEGDASLFTRPEIVVFNCSLQQVRNPSSFQEQPHGNITFNMELYNTDLFLVPSQGVFSVPENGHVYVEVSVTKAEQELGFAIQTCFISPYSNPDRMSHYTIIENICPKDESVKFYSPKRVHFPIPQADMDKKRFSFVFKPVFNTSLLFLQCELTLCTKMEKHPQKLPKCVPPDEACTSLDASIIWAMMQNKKTFTKPLAVIHHEAESKEKGPSMKEPNPISPPIFHGLDTLTVMGIAFAAFVIGALLTGALWYIYSHTGETAGRQQVPTSPPASENSSAAHSIGSTQSTPCSSSSTA"}}, "note": "These are yes or no findings as the source states them, for the method shown. Binding seen in cells or lysates may run through a third protein. These calls come from enrichment with a bait or labelling near it, and not all partners need be listed.", "data": [{"target": "H3K4me1 peptide (C-terminal biotin-tagged 19 amino acid N-terminal peptide of histone H3, mono-methylated on Lys 4) (UniProt P68431)", "assay": "affinity purification with mass spectrometry; biotin-tagged H3 peptides incubated with nuclear extract of SW1990 cells, captured on streptavidin agarose, SDS-PAGE with silver staining, bands excised for electrospray-ion trap tandem mass spectrometry; only the target purified", "values": [{"binder": "B1", "binding": "binds"}, {"binder": "B2", "binding": "binds"}, {"binder": "B3", "binding": "binds"}, {"binder": "B4", "binding": "binds"}]}]}
